Source: US20240342244A1, “Isthmin Protein Therapeutics for the Treatment of Non-Alcoholic Fatty Liver Disease” (The Board of Trustees of the Leland Stanford Junior …, priority 2021, published 2024)

B1: ISM1: recombinant mouse ISM1 protein with a C-terminal myc-his tag generated in mammalian HEK 293 Expi cells (protein, UniProt A2ATD1 30-454, looked up)
Isthmin-1: SDRQDAAAGNNNLNLESDSTSETSFPLSKEAPEEHQVVHQPFPRQRFPPETGHPSLQRDGPRSFLLDLPNFPDLSKADINGQNPNIQVTIEVVDGPDSEAEKDQHPENKPSWSLPAPDWRAWWQRSLSLARTNSGDQDDKYDSTSDDSNFLSVPRGWDRPAPGHRTFETKEQPEYDSTDGEGDWSLWSVCSVTCGNGNQKRTRSCGYACIATESRTCDRPNCPGIEDTFRTAATEVSLLAGSEEFNATKLFEVDMDSCERWMSCKSEFLKKYMHKVINDLPSCPCSYPTEVAYSTADIFDRIKRKDFRWKDASGPKEKLEIYKPTARYCIRSMLSLESTTLAAQHCCYGDNMQLITRGKGAGTPNLISTEFSAELHYKVDVLPWIICKGDWSRYNEARPPNNGQKCTESPSDEDYIKQFQEAREY
modifications: C-terminal myc-His tag
notes: recombinant mouse ISM1 protein with a C-terminal myc-his tag generated in mammalian HEK 293 Expi cells

Tests used:
NAFLD mice = experiment: Therapeutic administration for 14 days in mice with established NAFLD; assay type: in vivo, mouse; conditions: daily for 14 days; between the treatment groups
Description: Therapeutic ISM1 recombinant protein administration in vivo. All pharmacologic studies using recombinant ISM1 protein were performed in mice with established diet-induced obesity or non-alcoholic fatty liver disease (NAFLD). For all experiments, male C57BL/6J mice purchased from Jax were fed either a high-fat diet (#D12492, Research Diets) or a NAFLD diet (#D09100310, Research Diets) prior to ISM1 protein injections. In all experiments, mice were mock injected with saline for three days prior to protein or drug injections to prevent stress-induced weight loss. Mice were I.P. injected with vehicle (saline) or indicated doses of ISM1 protein diluted in saline. For the 14-day experiments in NAFLD mice, 7-weeks old mice were fed with NAFLD diet for 3 weeks and then mock injected with saline for 3 days prior to protein injections. The induction of lipid accumulation with NAFLD diet was verified by the significant increase in hepatic lipid levels compared with mice on chow diet at the same time point. NAFLD mice were then daily I.P. injected with either vehicle (saline containing 5% DMSO and 10% Kolliphor) or indicated doses of ISM1 protein (500 μg/kg or 5 mg/kg) or with FXR agonist (30 mg/kg, GW4064, Sigma-Aldrich, #G5172) diluted in vehicle (saline containing 5% DMSO and 10% Kolliphor). […] At the end of the experiments, mice and tissue weights were recorded. […]

DIO mice = experiment: Therapeutic ISM1, Metformin or combined administration for 21 days in DIO mice; assay type: in vivo, mouse; conditions: daily for 21 days; 5 mg/kg ISM1, 100 mg/kg Metformin or both
Description: Therapeutic ISM1 recombinant protein administration in vivo. All pharmacologic studies using recombinant ISM1 protein were performed in mice with established diet-induced obesity or non-alcoholic fatty liver disease (NAFLD). For all experiments, male C57BL/6J mice purchased from Jax were fed either a high-fat diet (#D12492, Research Diets) or a NAFLD diet (#D09100310, Research Diets) prior to ISM1 protein injections. In all experiments, mice were mock injected with saline for three days prior to protein or drug injections to prevent stress-induced weight loss. Mice were I.P. injected with vehicle (saline) or indicated doses of ISM1 protein diluted in saline. For the 14-day experiments in NAFLD mice, 7-weeks old mice were fed with NAFLD diet for 3 weeks and then mock injected with saline for 3 days prior to protein injections. The induction of lipid accumulation with NAFLD diet was verified by the significant increase in hepatic lipid levels compared with mice on chow diet at the same time point. NAFLD mice were then daily I.P. injected with either vehicle (saline containing 5% DMSO and 10% Kolliphor) or indicated doses of ISM1 protein (500 μg/kg or 5 mg/kg) or with FXR agonist (30 mg/kg, GW4064, Sigma-Aldrich, #G5172) diluted in vehicle (saline containing 5% DMSO and 10% Kolliphor). For the 21-day experiments in HFD mice, mice were mock injected with saline for three days prior to protein injections. Mice were then daily I.P. injected with either vehicle (saline) or 5 mg/kg of ISM1 protein diluted in saline. Metformin (100 mg/kg, Sigma, #317240) was diluted in saline and daily administered by oral gavage. All groups received control injections by I.P. and oral gavage. At the end of the experiments, mice and tissue weights were recorded. Tissues and plasma were collected and frozen for further analyses.
Glucose tolerance and insulin tolerance tests. For glucose tolerance tests, mice were fasted overnight and I.P. injected with glucose at 2 g/kg body weight. Blood glucose levels were measured at 0, 15, 30, 45, 60, 90 and 120 mins. For insulin tolerance tests, mice were fasted for 2 h, and I.P. injected with 0.75 U/kg insulin. Blood glucose levels were measured at 0, 15, 30, 45, 60, 90 and 120 mins.

Molecule	body weight (NAFLD mice)	body weights (DIO mice)	food intake (DIO mice)
CC(C)c1onc(-c2c(Cl)cccc2Cl)c1COc1ccc(/C=C/c2cccc(C(=O)O)c2)c(Cl)c1 [GW4064, reference compound]	no differences	–	–
CN(C)C(=N)N=C(N)N [Metformin, reference compound]	–	no difference	no difference
B1	no differences	no difference	no difference
